Measurements reported in PubChem BioAssay AID1259308 (NCATS, 2017)
In all, the deposit lists about 59,000 reagents; this is an unselected part. In the full data, about 1,510 (2.6%) were called active. 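Calls use total luciferase alone and ignore viability, so some active siRNAs may act by altering cell number.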 Reagent sequences are not shown.

Aim: 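Candidate targets for better recombinant protein yield in mammalian cells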 (primary screen)
Cells: human HEK293 embryonic kidney cells stably expressing firefly luciferase (HEK-CMV-Luc2-Hygro)
Reagent: single siRNA against human genes, 0.8 pmol siRNA per well
Timing: 72 h
Measurement: 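Luciferase light (ONE-Glo) measured on one replicate plate set and viability (CellTiter-Glo) on the other, scaled to a negative control siRNA, with robust z-scores and luciferase per cell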
Scale: total luciferase, z-score and total luciferase, % of control: higher = more reporter protein produced; luciferase per cell, z-score: higher = more reporter output per viable cell; viable cells, % of control: higher = more viable cells
Hit rule: 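Active when the median/MAD z-score for overall luciferase is greater than 3; a gene was taken forward for validation with new siRNAs if at least two of its three siRNAs passed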
Calls: active = raised luciferase; inactive = no rise

The first 2 entries as a preview:
Target gene	PubChem SID	total luciferase, z-score	total luciferase, % of control	luciferase per cell, z-score	viable cells, % of control	Call
RASSF3 (Ras association domain family member 3)	SID160762871	1.68	115	1.25	92.6	inactive
RASSF3 (Ras association domain family member 3)	SID160762872	0.964	101	0.107	110	inactive

Results, from the first entry:
Target gene	PubChem SID	total luciferase, z-score	total luciferase, % of control	luciferase per cell, z-score	viable cells, % of control	Call
RASSF3 (Ras association domain family member 3)	SID160762871	1.68	115	1.25	92.6	inactive
RASSF3 (Ras association domain family member 3)	SID160762872	0.964	101	0.107	110	inactive
RASSF3 (Ras association domain family member 3)	SID160762875	-1.06	60.8	-1.15	91.9	inactive
PCSK4 (proprotein convertase subtilisin/kexin type 4)	SID160731464	2.02	122	1.65	88.4	inactive
PCSK4 (proprotein convertase subtilisin/kexin type 4)	SID160742117	-0.857	64.8	-0.889	91.6	inactive
PCSK4 (proprotein convertase subtilisin/kexin type 4)	SID160742118	-0.915	63.7	-0.898	90.1	inactive
RAB33A (RAB33A, member RAS oncogene family)	SID160722037	-1.26	56.9	-1.15	85.9	inactive
RAB33A (RAB33A, member RAS oncogene family)	SID160722038	-1.03	61.4	-1.21	94.4	inactive
RAB33A (RAB33A, member RAS oncogene family)	SID160732168	3.37	149	2.26	91.8	active
ZNF98 (zinc finger protein 98)	SID160758654	0.0747	83.4	0.255	87.1	inactive
ZNF98 (zinc finger protein 98)	SID160758655	-1.17	58.6	-1.59	99.6	inactive
ZNF98 (zinc finger protein 98)	SID160758656	0.308	88	-0.297	106	inactive
CT45A5 (cancer/testis antigen family 45 member A5)	SID160768035	-0.601	69.9	0.531	67.9	inactive
CT45A5 (cancer/testis antigen family 45 member A5)	SID160768036	2.16	125	1.73	88.6	inactive
CT45A5 (cancer/testis antigen family 45 member A5)	SID160768037	-0.336	75.2	-0.403	93.4	inactive
KIF20B (kinesin family member 20B)	SID160722563	0.234	86.5	0.163	92.6	inactive
KIF20B (kinesin family member 20B)	SID160722565	-0.153	78.8	-0.441	99	inactive
KIF20B (kinesin family member 20B)	SID160722566	3.85	159	2.05	103	active
NPL (N-acetylneuraminate pyruvate lyase)	SID160731955	-0.0241	81.4	0.761	74.5	inactive
NPL (N-acetylneuraminate pyruvate lyase)	SID160750650	-1.6	50	-2.04	95.5	inactive
NPL (N-acetylneuraminate pyruvate lyase)	SID160750651	-0.23	77.3	-0.264	92.6	inactive
CELA3A (chymotrypsin like elastase 3A)	SID160725860	2.11	124	1.17	102	inactive
CELA3A (chymotrypsin like elastase 3A)	SID160725869	-0.307	75.8	-0.267	90.8	inactive
CELA3A (chymotrypsin like elastase 3A)	SID160725876	0.406	90	0.194	95.5	inactive
TMEM86B (transmembrane protein 86B)	SID160730893	-0.371	74.5	0.469	73.6	inactive
TMEM86B (transmembrane protein 86B)	SID160762260	1.71	116	1.4	89.7	inactive
TMEM86B (transmembrane protein 86B)	SID160762261	2.69	135	1.67	97.4	inactive
KRT5 (keratin 5)	SID160776387	0.382	89.5	0.537	86.8	inactive
KRT5 (keratin 5)	SID160776388	0.0523	82.9	-0.373	102	inactive
KRT5 (keratin 5)	SID160776389	0.371	89.3	1.09	74.9	inactive
PCBP2 (poly(rC) binding protein 2)	SID160713886	0.709	96	0.493	94.2	inactive
PCBP2 (poly(rC) binding protein 2)	SID160713887	-1.47	52.7	-0.556	68.1	inactive
PCBP2 (poly(rC) binding protein 2)	SID160713888	-0.0956	80	0.416	80.1	inactive
ACAD8 (acyl-CoA dehydrogenase family member 8)	SID160738274	3.51	152	3.16	73.8	active
ACAD8 (acyl-CoA dehydrogenase family member 8)	SID160738275	2.91	140	1.81	97.1	inactive
ACAD8 (acyl-CoA dehydrogenase family member 8)	SID160738276	1.91	120	1.51	90	inactive
DUS3L (dihydrouridine synthase 3 like)	SID160745330	0.633	94.5	0.00305	105	inactive
DUS3L (dihydrouridine synthase 3 like)	SID160745331	-0.532	71.3	-0.93	102	inactive
DUS3L (dihydrouridine synthase 3 like)	SID160745332	0.0519	82.9	1.6	60.8	inactive
